US20230338467A1

Amino acid sequences for entries named in this document (tags omitted). A change or cut given only in a name is not applied to a line headed by its entry.
UniProt P15692: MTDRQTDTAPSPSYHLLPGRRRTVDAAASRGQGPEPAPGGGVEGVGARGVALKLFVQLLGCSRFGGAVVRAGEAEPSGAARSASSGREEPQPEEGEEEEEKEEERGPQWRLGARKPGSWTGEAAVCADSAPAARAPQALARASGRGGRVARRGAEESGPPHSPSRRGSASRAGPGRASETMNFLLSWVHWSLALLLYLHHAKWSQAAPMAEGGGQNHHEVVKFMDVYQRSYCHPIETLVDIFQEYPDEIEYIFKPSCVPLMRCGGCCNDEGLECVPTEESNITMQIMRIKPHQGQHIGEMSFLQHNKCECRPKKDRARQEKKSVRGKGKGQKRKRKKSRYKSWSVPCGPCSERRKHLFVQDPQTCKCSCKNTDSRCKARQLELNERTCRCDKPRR

Columns and labels:
VEGF-A [1] = target: VEGF-A (UniProt P15692); test: co-IP in endothelial cells and IVTT (figure legend)
VEGF-A [2] = target: VEGF-A (UniProt P15692); test: in vitro transcription-translation coupled co-IP immunoblot assay (IVTT) (FIG. 7B)
VEGF-A [3] = target: VEGF-A (UniProt P15692); test: co-immunoprecipitation in endothelial cells (FIG. 7A)

Measured: binding

B1: Fat Specific Protein 27 (FSP27) (protein, UniProt Q96AQ7 1-238, looked up)
chain: MEYAMKSLSLLYPKSLSRHVSVRTSVVTQQLLSEPSPKAPRARPCRVSTADRSVRKGIMAYSLEDLLLKVRDTLMLADKPFFLVLEEDGTTVETEEYFQALAGDTVFMVLQKGQKWQPPSEQGTRHPLSLSHKPAKKIDVARVTFDLYKLNPQDFIGCLNVKATFYDTYSLSYDLHCCGAKRIMKEAFRWALFSMQATGHVLLGTSCYLQQLLDATEEGQPPKGKASSLIPTCLKILQ
binds: VEGF-A [1] | VEGF-A [2] | VEGF-A [3]

Results are given in words; binding and its absence hold for the method and conditions named. In cells and extracts the contact can be indirect. Binding calls can cover weak binding; strength is not graded here.
